Source: patent publication US7670806B2, “ADP-ribosyl acceptor hydrolase 3 (ARH3) polypeptides and methods of use” (The United States of America as represented by the …, priority 2005, dated 2010)
The name of at least one read-out is uncertain.

Test: Hydrolysis of O-acetyl-[14C]ADP-ribose by ARH proteins / PARG (RP-HPLC)
Type: biochemical
Method: FIG. 13A is a graph illustrating the results from incubation of 1.5 pmol of mouse ARH3 with or without 5 mM DTT and/or 10 mM MgCl2 as described in FIG. 11B with incubation for 1 h at 30° C. FIG. 13B is a graph illustrating the results from incubation of 1.5 pmol of wild type or mutant human (D77-78) ARH3 or 20 mU of PARG for 2 h at 30° C. *D77,78, assays incubated with 15 pmol of mutant human ARH3 (D77, D78).
FIG. 14A is a graph of the results from incubation with the indicated amount of mouse ARH1, 2, or 3 for 2 h at 30° C. FIG. 14B is a graph of the results from incubation with 230 pmol of mouse ARH1 at 30° C. for the indicated time.
Mouse ARH3 (2 pmol) and 2.5 μM O-acetyl-[^14C]ADP-ribose (5,000 cpm) in 200 μl of buffer containing 50 mM potassium phosphate (pH 7.0), 10 mM MgCl2 and 5 mM DTT were incubated for 2 h at 30° C., before separation of substrate and products using RP-HPLC as described below. […]
Because O-acetyl-ADP-ribose was known to be hydrolyzed at alkaline pH Tanny and Moazed (2001), Proc Natl Acad Sci USA. […] 26, 2000), it was generated at pH 7.0 in the presence of [^14C-adenine] β-NAD, Sir2, and acetylated histone H3 peptide (FIG. 11A), and the products of Sir2 and ARH3 were analyzed using reverse-phase HPLC at the same pH (FIGS. 11A,B). The products of the ARH3-catalyzed reaction were also analyzed by high resolution-polyacrylamide gel electrophoresis (FIG. 11C). […]

B1: ARH3: 39-kDa recombinant protein having both poly(ADP-ribose) glycohydrolase activity and O-acetyl-ADP-ribose hydrolase activity (protein, listed as Homo sapiens)
chain: MAAAAMAAAAGGGAGAARSLSRFRGCLAGALLGDCVGSFYEAHDTVDLTSVLRHVQSLEPDPGTPGSERTEALYYTDDTAMARALVQSLLAKEAFDEVDMAHRFAQEYKKDPDRGYGAGVVTVFKKLLNPKCRDVFEPARAQFNGKGSYGNGGAMRVAGISLAYSSVQDVQKFARLSAQLTHASSLGYNGAILQALAVHLALQGESSSEHFLKQLLGHMEDLEGDAQSVLDARELGMEERPYSSRLKKIGELLDQASVTREEVVSELGNGIAAFESVPTAIYCFLRCMEPDPEIPSAFNSLQRTLIYSISLGGDTDTIATMAGAIAGAYYGMDQVPESWQQSCEGYEETDILAQSLHRVFQKS
Question: With B1 as the molecule, how does the “kcat/Km, O-acetyl-ADP-ribose hydrolysis” value read?
Answer: 702 M⁻¹ s⁻¹
